Reference: publication PMC4864241
Results are given in words; binding and its absence hold for the method and conditions named. In cells and extracts the contact can be indirect. Some results given as binding are weak or reduced against the parent protein; the word gives no strength. Where a sequence is shown, tags or fusion partners need not be part of it.

T1: GFP-Wdr24 (Drosophila Wdr24, CG7609) (Drosophila melanogaster) (UniProt Q9XZ25)
T1 sequence: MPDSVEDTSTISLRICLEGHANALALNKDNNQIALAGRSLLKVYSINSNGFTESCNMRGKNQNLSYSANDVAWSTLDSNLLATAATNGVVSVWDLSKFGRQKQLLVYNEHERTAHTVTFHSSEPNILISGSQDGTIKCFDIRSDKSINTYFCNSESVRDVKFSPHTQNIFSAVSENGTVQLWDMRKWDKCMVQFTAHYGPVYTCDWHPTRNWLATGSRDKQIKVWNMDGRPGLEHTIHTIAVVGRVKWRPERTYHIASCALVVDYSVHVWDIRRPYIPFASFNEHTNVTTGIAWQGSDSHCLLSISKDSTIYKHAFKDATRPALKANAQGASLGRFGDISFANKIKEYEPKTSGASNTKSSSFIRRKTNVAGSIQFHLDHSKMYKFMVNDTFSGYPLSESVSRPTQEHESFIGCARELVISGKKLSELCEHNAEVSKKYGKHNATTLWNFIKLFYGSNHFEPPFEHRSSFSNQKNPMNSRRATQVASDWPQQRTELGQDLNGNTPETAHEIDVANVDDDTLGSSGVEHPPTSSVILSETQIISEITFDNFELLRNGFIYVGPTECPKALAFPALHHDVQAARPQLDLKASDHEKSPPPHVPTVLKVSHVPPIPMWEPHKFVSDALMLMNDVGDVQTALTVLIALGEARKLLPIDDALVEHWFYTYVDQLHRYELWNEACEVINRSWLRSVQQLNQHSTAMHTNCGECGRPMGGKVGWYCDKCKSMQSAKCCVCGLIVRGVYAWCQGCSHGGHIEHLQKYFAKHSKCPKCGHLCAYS

B1: HA-Seh1 (protein, UniProt Q7K2X8 1-354)
chain: MFDVEPIIADHKDVIHDVVFDYYGRRMATCSSDQTVKIWDEDGQGKWNVTSSWKAHSGSIWRVSWAHPEFGQVVATCSFDRTASVWEEVIGEKVSSTNTPTRRWVRRTTLVDSRTSVTDVEFAPKYLGLLLATASADGIIRIYEAPDIMNLSQWPVQHEISNKLPLSCLSWNTSTYMVTQLLAAGSDEAATPTGKVFLFAYSENSRKCVKIDTVNDITDPVTDVAFAPNAGRTFHMLAVASKDLYIVNLRGVTDATDISKLDIQTIKFSEHNCPVWRVCWNMLATMLISTGDDGCVRLWRMNYNRQWRCAAVLKAEGSGPTYEPAPPTPTLATTASATAKFYKKGTIGNQVPWH
B2: V5-Nprl3 (protein, UniProt Q9VUB4 1-610)
chain: METNVNPLAVILVYFDSKGDRLLYRYPYQTLGQTEVANDEQRKSRKRNPYAVANTDDLLQTPTHLGAAKSQGQLQGFADEVLSALFAVKPQLCNQKFELKLNDVRFVSHPTLIPQKEQRSGPMAKQQMLINIVFALHAQASYSIVKCYHELSKRLGLALKFEEQRSGYLTEQTAQMARTHDEQQQQPLERTLELIAERCSLAQALRSIFHDLCTTGLLSTSLNHNLTLCFCLPAKAHQLHKKGSMVDPETIDRCLRALKPYHGMLLLVDFAELLDCVPPTGARMLWQLVDVYDPLISLQSMSSNADLSIEHVYKLVSHLVYWAKATIIYPLCETNVYVIAPDAPLHTKSHLVEKFSARFAGMSLFEVISDFSLPTSIGHLTTPLQQPARQGILAQMVIWMLQHHLLMQLHTYVQFMPSEDEFGDSASCSNHLRDAISDEEGDQEPDADELHGSMLSMSSHPLPVPAVLVGGHRREASEDHSSLASDNIAVQPSSSHKSNFSITASMSTDNCDSLDSMEDEQKLKELLQVFSDADRAAIRRIPASANVDDLSLLVKLYQMGYFKSEHHLEEIMYFENLRRSQLLQLLDKFRDVLIIYETEDPAIASMYNTK
B3: HA-Mio (protein, UniProt Q9VQ89 1-867)
chain: MSGNTHGLSWFPHFPDKFVSWGQEIHLYEVRRKDDHSQKSRLPYISVNYLANESRYQYARCVAASYHSDQPIIAVGLADGKVGICNFRDTYDSSWEYTPRQQRMCTCLAWNELDANILAIGHDRHRNDTCITIWDIERGVPKETANFFGVGESANSICWDRNHRTVIAGMSQKMIKLFDLRQSNATCQSIQTKTVQGLSVSPNGNYLCSYVDSVITLWDPRNIKSPLRQIQSSKNHLQIAWCPTRTSLLSSLQRDSSYITLYDIRSVDTDNSGEIYHVKRQISPFPARYQHSGKFSFVNCLSWHSRDFERALLLADALNILDFRLPATLHTAHSNRRKLPLLMQRPLYTPASPTSTAATPTQQQPTSSCSTNSGSSLDFSTPGGSPFNVDLLKPELFELDLVDETRQRALEDYGIKPDNKRFGELHLTPYLRNVWSTLNNVYSEDRLTGLKATLGINLGHTSEALMASSRIESQVLQWPEGINNSNKLICYRSEQRDLALQLCGWAFEQELDRFIDQLYANKEYSRAAMICVFHLKIFHACNILSSAADNMRDPSMYRITVIALSSFNADRCSSTWRNQRSSANMQIHDPHLRAVFSFLTMEKDNFDAVLKEEGVSLSDRMAFACKYLSETKLADYVAQQIQAAIDGGDLNGLLLTGESQDGIDILQSYMDTSFDVQTVALVAINYFRQELFEDKRIQYWIASYLDHLNSWGLWEKRAELDIKIESIRPSSRSSRTVFLSCNFCGKSVSNALLDEPRPRSTTTSTNRLSSCPSCRKPLPRCSLCLMHMGTMVNMSNGETPTTTPDVPGWQTKPFSKWFSWCQTCRHGGHTEHIMQWFKQNSECPVSSCNCRCFDMDGTKPNTLRDIS

The binders below were run against T1, GFP-Wdr24 (Drosophila Wdr24, CG7609) (Drosophila melanogaster) (assay: co-IP; S2 cells co-transfected with the tagged proteins; lysates immunoprecipitated with GFP antibody (2 ug, protein G agarose and protein A agarose); Western blot with HA, V5 and GFP antibodies).

Binder | binding
B1 | binds
B2 | binds
B3 | binds
